Test results: paper PMC9329997
Results are given in words; binding and its absence hold for the method and conditions named. In cells and extracts the contact can be indirect. Some entries that bind do so weakly or less than the wild type.

Amino acid sequences for entries named in this document (tags omitted).
UniProt Q15910: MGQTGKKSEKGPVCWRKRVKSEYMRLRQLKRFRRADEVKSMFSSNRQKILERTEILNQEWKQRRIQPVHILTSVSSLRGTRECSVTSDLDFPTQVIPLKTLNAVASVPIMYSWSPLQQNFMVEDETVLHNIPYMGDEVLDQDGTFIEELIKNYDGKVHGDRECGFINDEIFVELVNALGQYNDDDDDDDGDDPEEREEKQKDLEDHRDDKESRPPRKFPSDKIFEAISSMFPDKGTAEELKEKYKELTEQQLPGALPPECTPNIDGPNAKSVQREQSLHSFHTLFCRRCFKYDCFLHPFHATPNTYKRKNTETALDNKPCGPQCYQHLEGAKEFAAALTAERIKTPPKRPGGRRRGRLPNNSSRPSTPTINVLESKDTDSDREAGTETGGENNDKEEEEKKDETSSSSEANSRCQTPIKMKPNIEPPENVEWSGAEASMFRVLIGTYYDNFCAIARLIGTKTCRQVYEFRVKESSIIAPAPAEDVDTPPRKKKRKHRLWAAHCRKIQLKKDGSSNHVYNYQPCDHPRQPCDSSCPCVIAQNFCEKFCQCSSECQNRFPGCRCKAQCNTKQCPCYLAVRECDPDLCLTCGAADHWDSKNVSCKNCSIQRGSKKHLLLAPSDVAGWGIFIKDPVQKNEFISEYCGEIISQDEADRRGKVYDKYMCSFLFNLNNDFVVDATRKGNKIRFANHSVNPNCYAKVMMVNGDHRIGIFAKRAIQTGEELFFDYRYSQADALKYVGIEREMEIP
UniProt Q92769: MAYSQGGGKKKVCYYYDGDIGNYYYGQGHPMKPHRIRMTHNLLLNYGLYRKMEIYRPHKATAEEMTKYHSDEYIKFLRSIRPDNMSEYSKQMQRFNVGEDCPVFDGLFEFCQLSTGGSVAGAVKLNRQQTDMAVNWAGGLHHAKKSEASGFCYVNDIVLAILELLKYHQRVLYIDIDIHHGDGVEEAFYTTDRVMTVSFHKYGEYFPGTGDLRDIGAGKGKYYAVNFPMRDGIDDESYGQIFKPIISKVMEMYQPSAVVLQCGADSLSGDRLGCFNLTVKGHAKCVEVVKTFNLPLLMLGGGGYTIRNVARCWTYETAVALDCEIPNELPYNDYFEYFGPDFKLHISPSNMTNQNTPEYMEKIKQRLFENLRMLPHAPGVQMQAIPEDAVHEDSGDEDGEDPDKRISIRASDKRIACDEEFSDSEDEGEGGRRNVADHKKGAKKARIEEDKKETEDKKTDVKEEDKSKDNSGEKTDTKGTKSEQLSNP

Molecular target: enhancer of zeste homologue 2 (EZH2), overexpression plasmid (UniProt Q15910)
Test: co-IP; MDA-MB-231 cells individually transfected with control, HDAC2 or EZH2 plasmid, lysed after 48 h; antibody on magnetic beads, lysate incubated at 4 °C overnight; eluate blotted for EZH2 and HDAC2

histone deacetylase 2 (HDAC2), overexpression plasmid (from UniProt Q92769 1-488)
binding: binds
